# Data taken from the supplement of paper PMC7238544.
# Where a name gives a salt, the structure may show the parent alone. ± gives the standard deviation of the averaged measurements. Some of the results follow. The data scatter; read single values as rough.
# Tested on: hAMSC donor 2
# Assay: Hoechst total cell count ratio vs vehicle control; hAMSC are human adipose-derived mesenchymal stem cells given an EGFP-luciferase plasmid by lipofection; higher = more cells (less toxicity)
# Conditions: priming compound concentration 0.2 µM
row,Compound,Hoechst total cell count ratio
1,COC(=O)N1CCN(C(=O)Cc2ccc(Cl)c(Cl)c2)C(CN2CCCC2)C1 (centres undefined),1.07 ± 0.23
2,c1ccc(Cn2ccnc2)cc1 [Benzylimidazole],1.02 ± 0.042
3,O=C1CN=C(c2ccccc2)c2cc([N+](=O)[O-])ccc2N1 [Nitrazepam],1.2 ± 0.12
4,C[C@]12CC[C@H](O)CC1=CC[C@@H]1[C@@H]2CC[C@]2(C)C(=O)CC[C@@H]12 [Dehydroepiandrosterone],1.07 ± 0.06
5,O=C1CC[C@@]2(O)[C@H]3Cc4ccc(O)c5c4[C@@]2(CCN3CC2CC2)[C@H]1O5 [Naltrexone hydrochloride],1.3 ± 0.5
6,N=C(NCc1ccc(Cl)cc1)SCCCc1c[nH]cn1 [Clobenpropit],0.974 ± 0.09
7,C=C(C)[C@@H]1[C@H]2OC(=O)[C@@H]1[C@]1(O)C[C@H]3O[C@]34C(=O)O[C@H]2[C@]14C.CC(C)(O)[C@@H]1[C@H]2OC(=O)[C@@H]1[C@]1(O)C[C@H]3O[C@]34C(=O)O[C@H]2[C@]14C [Picrotin - Picrotoxinin],1.67 ± 0.48
8,C[C@]12Cc3c[nH]nc3C[C@@H]1CC[C@@H]1[C@@H]2CC[C@@]2(C)[C@H]1CC[C@]2(C)O [Stanozolol],1.07 ± 0.028
9,C[N+]1(C)CCCC(OC(=O)C(O)(c2ccccc2)c2ccccc2)C1 (centres undefined) [Mepenzolate bromide],1.19 ± 0.12
10,CN[C@@H]1C[C@@H](c2ccc(Cl)c(Cl)c2)c2ccccc21 [Indatraline hydrochloride],0.91 ± 0.038
11,C#CCN(C)[C@H](C)Cc1ccccc1 [Selegiline hydrochloride],1.25 ± 0.35
12,C[C@]12CC[C@H]3[C@@H](CCC4=CC(=O)CC[C@@]43C)[C@@H]1CC[C@@H]2O [Testosterone],1.1 ± 0.12
13,C[C@]12C/C(=C/O)C(=O)C[C@@H]1CC[C@@H]1[C@@H]2CC[C@@]2(C)[C@H]1CC[C@]2(C)O [Oxymetholone],1.12 ± 0.19
14,FC(F)(F)c1cccc(N2CCNCC2)c1 [TFMPP hydrochloride],1.41 ± 0.15
15,CN(C)C(=O)Oc1ccc[n+](C)c1 [Pyridostigmine bromide],1.15 ± 0.049
16,Oc1cc(Cl)ccc1Oc1ccc(Cl)cc1Cl [Triclosan],1.07 ± 0.094
17,CCOC(=O)c1cncn1[C@H](C)c1ccccc1 [Etomidate],1.6 ± 0.074
18,CCOC(=O)C1(c2ccccc2)CCN(CCC(C#N)(c2ccccc2)c2ccccc2)CC1 [Diphenoxylate hydrochloride],1.13 ± 0.063
19,CCCCC/C=C\C/C=C\C/C=C\C/C=C\CCCC(=O)Nc1ccc(O)cc1,1.19 ± 0.082
20,CCCCCCCCCOc1ccc2[nH]cc(CCN)c2c1 [5-Nonyloxytryptamine hydrochloride],0.93 ± 0.31
21,COc1ccc(CCN)cc1OC [Homoveratrylamine],1.19 ± 0.16
22,O=C(O)C(Cl)Cl [Dichloroacetic acid],1.1 ± 0.13
23,C[C@]12CC[C@H](O)CC1=CC[C@@H]1[C@@H]2CC[C@@]2(C)[C@H]1CC[C@]2(C)O [Methylandrostenediol],1.07 ± 0.14
24,C=C(C)CN1CC[C@@]23c4c5ccc(O)c4O[C@H]2c2[nH]c4ccccc4c2C[C@]3(O)C1C5 [SDM25N hydrochloride],1.19 ± 0.32
25,c1ccc2c(c1)Nc1ccccc1S2 [Phenothiazine],0.804 ± 0.079
26,CN1CC[C@@H](c2ccc(F)cc2)[C@H](COc2ccc3c(c2)OCO3)C1 [N-Methylparoxetine],1.07 ± 0.051
27,CN1C(=O)CN=C(c2ccccc2)c2cc(Cl)ccc21 [Diazepam],1.3 ± 0.14

# Same assay, conditions: priming compound concentration 1.7 µM
row,Compound,Hoechst total cell count ratio
1,COC(=O)N1CCN(C(=O)Cc2ccc(Cl)c(Cl)c2)C(CN2CCCC2)C1 (centres undefined),1.13 ± 0.06
2,c1ccc(Cn2ccnc2)cc1 [Benzylimidazole],1.17 ± 0.032
3,O=C1CN=C(c2ccccc2)c2cc([N+](=O)[O-])ccc2N1 [Nitrazepam],0.769 ± 0.03
4,C[C@]12CC[C@H](O)CC1=CC[C@@H]1[C@@H]2CC[C@]2(C)C(=O)CC[C@@H]12 [Dehydroepiandrosterone],1.28 ± 0.025
5,O=C1CC[C@@]2(O)[C@H]3Cc4ccc(O)c5c4[C@@]2(CCN3CC2CC2)[C@H]1O5 [Naltrexone hydrochloride],1.3 ± 0.043
6,N=C(NCc1ccc(Cl)cc1)SCCCc1c[nH]cn1 [Clobenpropit],1.36 ± 0.29
7,C=C(C)[C@@H]1[C@H]2OC(=O)[C@@H]1[C@]1(O)C[C@H]3O[C@]34C(=O)O[C@H]2[C@]14C.CC(C)(O)[C@@H]1[C@H]2OC(=O)[C@@H]1[C@]1(O)C[C@H]3O[C@]34C(=O)O[C@H]2[C@]14C [Picrotin - Picrotoxinin],0.915 ± 0.065
8,C[C@]12Cc3c[nH]nc3C[C@@H]1CC[C@@H]1[C@@H]2CC[C@@]2(C)[C@H]1CC[C@]2(C)O [Stanozolol],1.08 ± 0.031
9,C[N+]1(C)CCCC(OC(=O)C(O)(c2ccccc2)c2ccccc2)C1 (centres undefined) [Mepenzolate bromide],0.981 ± 0.1
10,CN[C@@H]1C[C@@H](c2ccc(Cl)c(Cl)c2)c2ccccc21 [Indatraline hydrochloride],1.12 ± 0.058
11,C#CCN(C)[C@H](C)Cc1ccccc1 [Selegiline hydrochloride],1.07 ± 0.11
12,C[C@]12CC[C@H]3[C@@H](CCC4=CC(=O)CC[C@@]43C)[C@@H]1CC[C@@H]2O [Testosterone],1.39 ± 0.12
13,C[C@]12C/C(=C/O)C(=O)C[C@@H]1CC[C@@H]1[C@@H]2CC[C@@]2(C)[C@H]1CC[C@]2(C)O [Oxymetholone],0.772 ± 0.043
14,FC(F)(F)c1cccc(N2CCNCC2)c1 [TFMPP hydrochloride],1.1 ± 0.051
15,CN(C)C(=O)Oc1ccc[n+](C)c1 [Pyridostigmine bromide],1.27 ± 0.029
16,Oc1cc(Cl)ccc1Oc1ccc(Cl)cc1Cl [Triclosan],0.855 ± 0.14
17,CCOC(=O)c1cncn1[C@H](C)c1ccccc1 [Etomidate],0.896 ± 0.2
18,CCOC(=O)C1(c2ccccc2)CCN(CCC(C#N)(c2ccccc2)c2ccccc2)CC1 [Diphenoxylate hydrochloride],1.36 ± 0.34
19,CCCCC/C=C\C/C=C\C/C=C\C/C=C\CCCC(=O)Nc1ccc(O)cc1,0.868 ± 0.033
20,CCCCCCCCCOc1ccc2[nH]cc(CCN)c2c1 [5-Nonyloxytryptamine hydrochloride],0.956 ± 0.11
21,COc1ccc(CCN)cc1OC [Homoveratrylamine],1 ± 0.16
22,O=C(O)C(Cl)Cl [Dichloroacetic acid],1.41 ± 0.036
23,C[C@]12CC[C@H](O)CC1=CC[C@@H]1[C@@H]2CC[C@@]2(C)[C@H]1CC[C@]2(C)O [Methylandrostenediol],0.842 ± 0.15
24,C=C(C)CN1CC[C@@]23c4c5ccc(O)c4O[C@H]2c2[nH]c4ccccc4c2C[C@]3(O)C1C5 [SDM25N hydrochloride],0.809 ± 0.028
25,c1ccc2c(c1)Nc1ccccc1S2 [Phenothiazine],0.707 ± 0.055
26,CN1CC[C@@H](c2ccc(F)cc2)[C@H](COc2ccc3c(c2)OCO3)C1 [N-Methylparoxetine],1.07 ± 0.065
27,CN1C(=O)CN=C(c2ccccc2)c2cc(Cl)ccc21 [Diazepam],0.94 ± 0.019
